The list does not hold the whole screen: it is rich in T/C values a quarter to a half above the control, in often repeated tests (any T/C) and in doses without a T/C. Further doses and runs are listed elsewhere. T/C gives the treated animals as a percentage of the vehicle group. Some entries give survivors of the animals treated and no T/C: the source files T/C as zero there, which appears to mark a toxic dose or a test without result, not a measured value. Some doses without a T/C left all or most animals alive at the check, yet need not have been tolerated: the source hardly ever lists a survival T/C far under the control, and the zero likely stands for such cases as well. Counts of survivors are from the toxicity check (mostly the fifth day) where no day follows; animals may have died later. Schedules are NCI's codes, read here as Q, the interval in days (D) or hours (H), X, the number of doses. Some doses were run more than once; the results are listed from low to high. Some schedule codes hold Z or #, which are not explained here. Where survival is the endpoint, this PubChem deposit counts one and a half times the control or more as active, and values a quarter to a half above the control carry no call in these data; other NCI protocols may use other cut-offs. Some T/C values are followed by the survivors on the day toxicity was checked, most often the fifth; where none is given, no animal had died by that day.

This experiment concerns L1210 leukemia ip in BDF1 mice, survival T/C. The experiment can be described thus: NCI In Vivo Anticancer Drug Screen. Data for tumor model L1210 Leukemia (intraperitoneal) in B6D2F1 (BDF1) mice. The following applies: T/C endpoint: mean survival time, higher T/C = longer survival.
The mark [1] stands for this setting: dose: 25.0 mg/kg/injection, schedule: Q01DX009 (ip), vehicle: saline.

Regarding `CC[N+](CC)(CC)CCCCCCCC[N+](CC)(CC)CC`, the survivor count reads like this: (dose: 3.12 mg/kg/injection, schedule: Q01DX009 (ip), vehicle: water) 3 of 6; (dose: 3.12 mg/kg/injection, schedule: Q04DX003 (ip), vehicle: saline) 1 of 6; (dose: 6.25 mg/kg/injection, schedule: Q04DX003 (ip), vehicle: saline) 0 of 6; (dose: 100.0 mg/kg/injection, schedule: Q04DX003 (ip), vehicle: water) 0 of 6; (dose: 200.0 mg/kg/injection, schedule: Q04DX003 (ip), vehicle: water) 0 of 6; (dose: 400.0 mg/kg/injection, schedule: Q04DX003 (ip), vehicle: water) 0 of 6.
On to `O=C(NCCCCCCCCCCNC(=O)Nc1ccc(C2=NCC(O)CN2)cc1)Nc1ccc(C2=NCC(O)CN2)cc1` (centres undefined), for which, under “dose: 32.0 mg/kg/injection, schedule: Q01DX Z (ip), vehicle: water”, the survivor count is 0 of 6.
In the case of `COC(=O)C(C)C(C)(O)C(C)(C)C` (centres undefined), the survivor count is, setting by setting: (dose: 200.0 mg/kg/injection, schedule: Q04DX003 (ip), vehicle: saline with Tween-80) 0 of 6; (dose: 400.0 mg/kg/injection, schedule: Q04DX003 (ip), vehicle: saline with Tween-80) 0 of 6.
On to `CCc1ccc(NC2=NCCO2)cc1`, for which the survivor count (dose: 100.0 mg/kg/injection, schedule: Q01DX009 (ip), vehicle: Klucel (hydroxypropylcellulose) (HPC)) is 1 of 6; the survivor count (dose: 200.0 mg/kg/injection, schedule: Q04DX003 (ip), vehicle: saline) was 5 of 6; the survivor count (dose: 400.0 mg/kg/injection, schedule: Q04DX003 (ip), vehicle: saline) was 1 of 6.
Turning to `CNC(=O)c1ccc(NC(=O)Nc2cccc(C3=NCCN3)c2)cc1NC(=O)Nc1cccc(C2=NCCN2)c1`, the T/C by setting is: (dose: 18.0 mg/kg/injection, schedule: Q01DX015 (ip), vehicle: methylcellulose (MC)) 125 % of control [5 of 6 alive]; (dose: 18.0 mg/kg/injection, schedule: Q01DX Z (ip), vehicle: carboxymethylcellulose (CMC)) 131 % of control. Besides, the survivor count reads like this: (dose: 27.0 mg/kg/injection, schedule: Q01DX015 (ip), vehicle: methylcellulose (MC)) 0 of 6; (dose: 36.0 mg/kg/injection, schedule: Q01DX015 (ip), vehicle: methylcellulose (MC)) 0 of 6; (dose: 54.0 mg/kg/injection, schedule: Q01DX015 (ip), vehicle: methylcellulose (MC)) 0 of 6; (dose: 72.0 mg/kg/injection, schedule: Q01DX015 (ip), vehicle: methylcellulose (MC)) 0 of 6.
With `O=c1[nH]cncc1CCC1OCCO1`, the survivor count (dose: 400.0 mg/kg/injection, schedule: Q01DX009 (ip), vehicle: saline) is 0 of 6.
For the compound `IC1CCC(I)C2CCC1O2` (centres undefined) (tested in a mixture with another compound), the survivor count (dose: 100.0 mg/kg/injection, schedule: Q04DX003 (ip), vehicle: Klucel (hydroxypropylcellulose) (HPC)) is 6 of 6.
For the compound `CC[N+](CC)(CCO)CCCCCCCCCC[N+](CC)(CC)CCO`, the survivor count is, setting by setting: (dose: 100.0 mg/kg/injection, schedule: Q01DX001 (ip), vehicle: saline) 1 of 6; (dose: 200.0 mg/kg/injection, schedule: Q01DX001 (ip), vehicle: saline) 0 of 6; (dose: 400.0 mg/kg/injection, schedule: Q01DX001 (ip), vehicle: saline) 0 of 6.
In the case of `CCOc1cc(C=Nc2cc(Br)c(OC)c(Br)c2)ccc1N(CCCl)CCCl`, the T/C is, setting by setting: (dose: 17.0 mg/kg/injection, schedule: Q01DX009 (ip), vehicle: carboxymethylcellulose (CMC)) 139 % of control; (dose: 100.0 mg/kg/injection, schedule: Q01DX001 (ip), vehicle: carboxymethylcellulose (CMC)) 128 % of control; (dose: 200.0 mg/kg/injection, schedule: Q01DX001 (ip), vehicle: carboxymethylcellulose (CMC)) 128 and 130 % of control; (dose: 300.0 mg/kg/injection, schedule: Q01DX001 (ip), vehicle: carboxymethylcellulose (CMC)) 139 % of control. In addition, the survivor count is recorded as 6 of 6 (dose: 26.0 mg/kg/injection, schedule: Q01DX009 (ip), vehicle: carboxymethylcellulose (CMC)); 4 of 6 (dose: 40.0 mg/kg/injection, schedule: Q01DX009 (ip), vehicle: carboxymethylcellulose (CMC)); 5 of 6 (dose: 60.0 mg/kg/injection, schedule: Q01DX009 (ip), vehicle: carboxymethylcellulose (CMC)); 3 of 6 (dose: 89.0 mg/kg/injection, schedule: Q01DX009 (ip), vehicle: carboxymethylcellulose (CMC)); 2 of 6 (dose: 133.0 mg/kg/injection, schedule: Q01DX009 (ip), vehicle: carboxymethylcellulose (CMC)); 0 of 6 (dose: 200.0 mg/kg/injection, schedule: Q01DX009 (ip), vehicle: carboxymethylcellulose (CMC)). Further, the survivor count is, setting by setting: (dose: 300.0 mg/kg/injection, schedule: Q01DX009 (ip), vehicle: carboxymethylcellulose (CMC)) 0 of 6; (dose: 400.0 mg/kg/injection, schedule: Q01DX001 (ip), vehicle: carboxymethylcellulose (CMC)) 2 of 4.
Take `CCC1(C(C)Br)OC2=C(CC(C#N)(C#N)C(C#N)(C#N)C2)O1` (centres undefined): the survivor count runs as follows: under setting [1], 3 of 6; (dose: 50.0 mg/kg/injection, schedule: Q01DX009 (ip), vehicle: other) 2 of 6; (dose: 75.0 mg/kg/injection, schedule: Q01DX009 (ip), vehicle: saline) 2 of 6; (dose: 150.0 mg/kg/injection, schedule: Q01DX001 (ip), vehicle: saline) 3 of 6; (dose: 300.0 mg/kg/injection, schedule: Q01DX001 (ip), vehicle: saline) 2 of 6.
In the case of `CC(C)CC(N)C(=O)CCl` (centres undefined), the survivor count (dose: 100.0 mg/kg/injection, schedule: Q04DX002 (ip), vehicle: Klucel (hydroxypropylcellulose) (HPC)) was 2 of 3.
As to `NC(N)=NN=C1c2ccccc2-c2ccccc21`, the survivor count runs as follows: (dose: 8.0 mg/kg/injection, schedule: Q01DX Z (oral), vehicle: methylcellulose (MC)) 4 of 6; (dose: 15.0 mg/kg/injection, schedule: Q01DX Z (ip), vehicle: methylcellulose (MC)) 3 of 6; (dose: 30.0 mg/kg/injection, schedule: Q01DX Z (ip), vehicle: methylcellulose (MC)) 1 of 6; (dose: 32.0 mg/kg/injection, schedule: Q01DX Z (oral), vehicle: methylcellulose (MC)) 4 of 6; (dose: 60.0 mg/kg/injection, schedule: Q01DX Z (ip), vehicle: methylcellulose (MC)) 0 of 6; (dose: 120.0 mg/kg/injection, schedule: Q01DX Z (ip), vehicle: methylcellulose (MC)) 0 of 6.
On to `[CH3][Sn]([CH3])([Cl])[CH2]Cl`, for which the survivor count is 3 of 6 and 5 of 6 (dose: 6.25 mg/kg/injection, schedule: Q01DX009 (ip), vehicle: saline); 0 of 6 (dose: 12.5 mg/kg/injection, schedule: Q01DX009 (ip), vehicle: saline); 0 of 6 under setting [1]; 0 of 3 (dose: 25.0 mg/kg/injection, schedule: Q04DX002 (ip), vehicle: saline); 0 of 3 (dose: 50.0 mg/kg/injection, schedule: Q04DX002 (ip), vehicle: saline); 0 of 3 (dose: 100.0 mg/kg/injection, schedule: Q04DX002 (ip), vehicle: saline). Also, the survivor count is reported as 0 of 3 (dose: 200.0 mg/kg/injection, schedule: Q04DX002 (ip), vehicle: saline) and 0 of 3 (dose: 400.0 mg/kg/injection, schedule: Q04DX002 (ip), vehicle: saline).
Consider `COc1ccc(C2CC(=O)OC(=O)C2)cc1`, for which, for the setting “dose: 100.0 mg/kg/injection, schedule: Q04DX003 (ip), vehicle: saline with Tween-80”, the survivor count is 6 of 6.
`Cc1ccc(SC2=C(Sc3ccc(C)cc3)C(=O)c3ccccc3C2=O)cc1`: the survivor count runs as follows: (dose: 100.0 mg/kg/injection, schedule: Q01DX009 (ip), vehicle: saline with Tween-80) 6 of 6; (dose: 200.0 mg/kg/injection, schedule: Q01DX009 (ip), vehicle: saline with Tween-80) 6 of 6; (dose: 400.0 mg/kg/injection, schedule: Q01DX009 (ip), vehicle: saline with Tween-80) 6 of 6.

Source of the values: PubChem BioAssay AID248 (DTP/NCI, 2004).
